The values that follow come from paper PMC12797002, “Hydrophobic residues in the α‐synuclein NAC domain drive seed‐competent fibril formation and are targeted by peptide inhibitors” (The Febs Journal, 2025).

No constants are given. Whether binding was seen depends on the method and setting.

The assay addresses scrambled control peptide. Kind of assay: ThT aggregation kinetics; inhibitor peptides alone (Fig. S8); both purified.

B1: scrambled control peptide (peptide)
peptide: VSRKIVRRRRR
B1: the binding result is on record as “no binding”.
